Source: patent US9709886B2, “Sulfonic acid derivative compounds as photoacid generators in resist applications” (Heraeus Precious Metals North America Daychem LLC, priority 2015, dated 2017)

Experiment: Photolysis of PAGs in acetonitrile, irradiation at 365 nm (photoreactivity)
Format: physicochemical
Settings: photoreaction constant in acetonitrile (3×10^−5 M), NIT normalized to one
From the text: A photoresist composition typically comprises PAG, polymers, additives and solvents. The performance of a photoresist composition is mainly dependent on the properties of the PAG and polymer components. To formulate a high-performance photoresist composition, more photosensitive PAGs are typically selected. The photosensitivity of a PAG is typically directly related to the strength of the generated acid and the photoreactivity of the PAG. For a series of PAGs producing the same latent acid, their photosensitivity is related only to their photoreactivity. Thus evaluating the photosensitivity of a PAG can be achieved by studying its photoreactivity. The higher photoreactivity, the higher photosensitivity. The photoreactivity can be investigated by photolysis of a PAG in its dilute solution under low exposure intensity (to avoid side reactions which don't generate the desired acid). The change in the concentration of a PAG upon irradiation can be determined by measuring the absorbance of the PAG at the maximum absorption wavelength.
Photolysis of PAGs was carried out in acetonitrile in air at room temperature. The sodium salt of tetrabromophenol blue (TBPBNa), an acid indicator dye, which has a maximum absorption at 618 nm, was purchased from Aldrich (indicator grade) and used as received. Irradiation of the solution of the PAGs (3×10^−5 M) was performed using a Cole-Parmer UV 15 W bench lamp (EW-97605-50) at 365 nm. Light intensity was measured using an UV Power Puck II radiometer from EIT Inc. UV-Vis spectra were run on a Thermo Scientific Evolution 201 UV-visible spectrophotometer.
Photolysis of NIT, comparative compound A and B, T1, T2, T3, and T5 was examined in acetonitrile. […] The absorption band at 362 nm (λmax) gradually decreases upon irradiation, indicating the progress of photoreaction with the increase of exposure dose of energy. Assuming the photoreaction is first-order, a plot of the natural log of changes in absorbance with exposure dose of energy gives the photoreaction constant of T3 (i.e., the slope of the linear trendline) (FIG. 2). The photoreaction constants of other compounds were similarly determined under the same irradiation condition. Comparing the constants of A, B, T1, T2, T3, and T5 with that of NIT normalized to one gives the relative photoreactivity (Table 9). […] The formation of acid upon irradiation was confirmed by observing the spectral changes of the acid indicator, TBPBNa at 618 nm.

SMILES	Relative Photoreactivity at 365 nm
O=C1c2cccc3cccc(c23)C(=O)N1OS(=O)(=O)C(F)(F)F [NIT, N-Hydroxynaphthalimide triflate, reference compound]	1.0
CCCCCCC#Cc1ccc2c3c(cccc13)C(=O)N(OS(=O)(=O)C(F)(F)F)C2=O [Compound T2]	8.6
CCCC(=O)OCC#Cc1ccc2c3c(cccc13)C(=O)N(OS(=O)(=O)C(F)(F)F)C2=O [Compound T5]	4.0
CCCCC#Cc1ccc2c3c(cccc13)C(=O)N(OS(=O)(=O)C(F)(F)F)C2=O [B, reference compound]	8.0
CCCCC#Cc1ccc2c3c(cccc13)C(=O)N(OS(=O)(=O)C(F)(F)C(F)(F)C(F)(F)C(F)(F)F)C2=O [Compound T1]	9.3
CCCCCCC#Cc1ccc2c3c(cccc13)C(=O)N(OS(=O)(=O)C(F)(F)C(F)(F)C(F)(F)C(F)(F)F)C2=O [Compound T3]	9.6
O=C1c2cccc3c(C#Cc4ccccc4)ccc(c23)C(=O)N1OS(=O)(=O)C(F)(F)F [A, reference compound]	2.5
